PubChem BioAssay AID743121, NCATS, 2013

Assay: 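Genes whose silencing strengthens cell killing by camptothecin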 (primary screen)
System: MDA-MB-231 cells, a human breast cancer line
Knock-down reagent: single siRNA against human genes, 20 nM siRNA (0.8 pmol per well)
Timing: 120 h (drug added 48 h after transfection, read 72 h later)
Conditions: camptothecin 20 nM (about EC30) for 72 h; vehicle 0.1% DMSO in parallel plates
Measurement: 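Cell viability by ATP luminescence (CellTiter-Glo) as % of non-targeting siRNA wells, and the log2 ratio of viability without drug over viability with camptothecin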
Reading the numbers: log2 vehicle/camptothecin viability: higher = stronger sensitisation to camptothecin
Active means: 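Active genes have an RSA gene-level p-value below 0.001, computed from the ratios of their separate siRNAs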
Shown is a random part of about 26,000 reagents tested. 167 of them (0.63%) count as active. 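Calls are per gene from RSA p-values that are not deposited; an individual active-marked siRNA can sensitise only weakly.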 Reagents against one gene are numbered here. Not all columns of the deposit are shown.

With RAP2A #1, what was measured?
log2 vehicle/camptothecin viability: -0.246; call: inactive

With RAP2A #2, how do the results read?
log2 vehicle/camptothecin viability: -0.428; call: inactive

What did the screen give for RAP2A #3?
log2 vehicle/camptothecin viability: -0.118; call: inactive

What is on record for KIF25 #1?
log2 vehicle/camptothecin viability: -0.0568; call: inactive

Which result is listed for KIF25 #2?
log2 vehicle/camptothecin viability: -0.125; call: inactive

With KIF25 #3, how do the results read?
log2 vehicle/camptothecin viability: 0.698; call: inactive

For PRTFDC1 #1, how do the results read?
log2 vehicle/camptothecin viability: -0.311; call: inactive

Which result is listed for PRTFDC1 #2?
log2 vehicle/camptothecin viability: -0.211; call: inactive

For PRTFDC1 #3, how do the results read?
log2 vehicle/camptothecin viability: 0.131; call: inactive

How did the screen score PRTFDC1 #4?
log2 vehicle/camptothecin viability: -0.348; call: inactive

A few values from above.
PRTFDC1 #3, call = inactive
For “log2 vehicle/camptothecin viability”, KIF25 #2 is entered as -0.125

The list goes on:
What did the screen give for CDKN1C #1?
log2 vehicle/camptothecin viability: -0.199; call: inactive

For CDKN1C #2, how do the results read?
log2 vehicle/camptothecin viability: -0.282; call: inactive

For CDKN1C #3, what was measured?
log2 vehicle/camptothecin viability: -0.668; call: inactive

What did the screen give for CDKN1C #4?
log2 vehicle/camptothecin viability: 0.195; call: inactive

With PRLHR #1, what was measured?
log2 vehicle/camptothecin viability: -0.323; call: inactive

What did the screen give for PRLHR #2?
log2 vehicle/camptothecin viability: -0.188; call: inactive

With PRLHR #3, what does the deposit list?
log2 vehicle/camptothecin viability: -0.339; call: inactive

With PRLHR #4, how do the results read?
log2 vehicle/camptothecin viability: -0.238; call: inactive

What is on record for PPP1CC #1?
log2 vehicle/camptothecin viability: -0.156; call: inactive

What did the screen give for PPP1CC #2?
log2 vehicle/camptothecin viability: -0.399; call: inactive

With PPP1CC #3, how do the results read?
log2 vehicle/camptothecin viability: -0.0355; call: inactive

Which result is listed for PPP1CC #4?
log2 vehicle/camptothecin viability: 1.5; call: inactive

For PSMB7 #1, how do the results read?
log2 vehicle/camptothecin viability: -0.369; call: inactive

What did the screen give for PSMB7 #2?
log2 vehicle/camptothecin viability: -0.358; call: inactive

For PSMB7 #3, what was measured?
log2 vehicle/camptothecin viability: -0.481; call: inactive
